Results from publication PMC12059209.
No constants are given. Whether binding was seen depends on the method and setting. In cells and extracts the contact can be indirect. Here binding means that the protein was enriched with, or labelled near, the bait; the list need not be complete. Where a sequence is shown, tags or fusion partners need not be part of it.

By UniProt entry, the sequences of proteins in these tests, tags left out.
UniProt Q8NEM7: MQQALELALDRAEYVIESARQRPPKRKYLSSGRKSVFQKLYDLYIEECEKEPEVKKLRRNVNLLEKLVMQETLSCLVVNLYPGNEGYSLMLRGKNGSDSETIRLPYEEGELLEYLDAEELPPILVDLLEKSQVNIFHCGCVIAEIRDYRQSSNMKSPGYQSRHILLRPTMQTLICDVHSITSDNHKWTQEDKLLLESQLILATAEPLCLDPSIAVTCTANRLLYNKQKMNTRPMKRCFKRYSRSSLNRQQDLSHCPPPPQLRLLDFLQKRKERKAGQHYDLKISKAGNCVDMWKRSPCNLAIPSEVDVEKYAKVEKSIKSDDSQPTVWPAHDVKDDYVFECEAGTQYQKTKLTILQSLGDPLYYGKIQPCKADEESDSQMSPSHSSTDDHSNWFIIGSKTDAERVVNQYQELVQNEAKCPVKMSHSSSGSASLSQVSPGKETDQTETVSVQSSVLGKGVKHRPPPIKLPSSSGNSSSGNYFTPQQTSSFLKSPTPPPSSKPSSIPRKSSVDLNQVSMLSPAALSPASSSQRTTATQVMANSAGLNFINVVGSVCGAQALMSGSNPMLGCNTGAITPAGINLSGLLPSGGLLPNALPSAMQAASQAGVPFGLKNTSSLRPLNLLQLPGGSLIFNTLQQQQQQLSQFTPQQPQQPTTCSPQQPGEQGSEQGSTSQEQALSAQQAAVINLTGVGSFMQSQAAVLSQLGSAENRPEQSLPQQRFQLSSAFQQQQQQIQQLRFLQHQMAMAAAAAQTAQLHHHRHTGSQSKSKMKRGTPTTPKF
UniProt O15265: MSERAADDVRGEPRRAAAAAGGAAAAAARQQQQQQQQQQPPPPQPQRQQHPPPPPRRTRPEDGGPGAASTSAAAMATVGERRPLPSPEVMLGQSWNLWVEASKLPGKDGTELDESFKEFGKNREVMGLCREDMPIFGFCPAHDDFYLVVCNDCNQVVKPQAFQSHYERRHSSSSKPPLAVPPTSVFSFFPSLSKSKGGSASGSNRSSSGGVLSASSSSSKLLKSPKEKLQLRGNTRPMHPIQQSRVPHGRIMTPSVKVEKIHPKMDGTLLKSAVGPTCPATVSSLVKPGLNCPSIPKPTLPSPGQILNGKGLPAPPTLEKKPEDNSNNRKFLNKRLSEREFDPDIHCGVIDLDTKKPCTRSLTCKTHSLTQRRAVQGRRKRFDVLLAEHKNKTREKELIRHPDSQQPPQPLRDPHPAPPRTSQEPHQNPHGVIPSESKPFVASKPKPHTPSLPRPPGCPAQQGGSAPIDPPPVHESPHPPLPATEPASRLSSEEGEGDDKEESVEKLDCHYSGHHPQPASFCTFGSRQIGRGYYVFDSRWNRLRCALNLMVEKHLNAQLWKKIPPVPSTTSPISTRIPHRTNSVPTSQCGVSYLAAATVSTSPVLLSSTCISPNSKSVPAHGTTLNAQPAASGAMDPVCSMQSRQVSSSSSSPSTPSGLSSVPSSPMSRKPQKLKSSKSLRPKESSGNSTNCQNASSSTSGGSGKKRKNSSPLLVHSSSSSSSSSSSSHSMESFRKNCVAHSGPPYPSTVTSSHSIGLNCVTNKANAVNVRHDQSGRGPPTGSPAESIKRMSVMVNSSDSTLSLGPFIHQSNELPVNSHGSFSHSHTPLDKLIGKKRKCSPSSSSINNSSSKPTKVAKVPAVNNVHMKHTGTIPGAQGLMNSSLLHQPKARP
UniProt P21127: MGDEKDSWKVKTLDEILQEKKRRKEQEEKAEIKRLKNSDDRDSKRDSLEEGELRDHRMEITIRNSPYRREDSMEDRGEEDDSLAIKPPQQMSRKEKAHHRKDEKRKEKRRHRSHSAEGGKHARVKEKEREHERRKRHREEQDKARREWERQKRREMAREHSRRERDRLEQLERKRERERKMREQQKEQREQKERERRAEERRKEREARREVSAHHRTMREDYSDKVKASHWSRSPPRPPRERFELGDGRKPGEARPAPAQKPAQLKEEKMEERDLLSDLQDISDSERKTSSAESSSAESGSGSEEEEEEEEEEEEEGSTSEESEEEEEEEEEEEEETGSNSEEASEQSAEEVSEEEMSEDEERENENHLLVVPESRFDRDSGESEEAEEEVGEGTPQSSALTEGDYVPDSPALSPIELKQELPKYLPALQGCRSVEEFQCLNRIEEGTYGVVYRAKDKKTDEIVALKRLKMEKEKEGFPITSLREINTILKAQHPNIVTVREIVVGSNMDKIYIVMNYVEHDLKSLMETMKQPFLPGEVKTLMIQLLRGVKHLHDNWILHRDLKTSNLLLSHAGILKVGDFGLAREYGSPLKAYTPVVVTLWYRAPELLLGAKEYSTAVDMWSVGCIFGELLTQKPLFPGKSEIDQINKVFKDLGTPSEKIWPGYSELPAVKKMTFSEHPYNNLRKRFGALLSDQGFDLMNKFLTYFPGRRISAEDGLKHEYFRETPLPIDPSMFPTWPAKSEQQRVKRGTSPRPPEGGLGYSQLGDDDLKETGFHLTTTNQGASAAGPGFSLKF

B1: ENY2 (protein, UniProt Q9NPA8 1-101)
chain: MVVSKMNKDAQMRAAINQKLIETGERERLKELLRAKLIECGWKDQLKAHCKEVIKEKGLEHVTVDDLVAEITPKGRALVPDSVKKELLQRIRTFLAQHASL

Molecular target: T1, Flag-USP22 (ubiquitin-specific protease 22, full length) (UniProt Q9UPT9)
T1 sequence: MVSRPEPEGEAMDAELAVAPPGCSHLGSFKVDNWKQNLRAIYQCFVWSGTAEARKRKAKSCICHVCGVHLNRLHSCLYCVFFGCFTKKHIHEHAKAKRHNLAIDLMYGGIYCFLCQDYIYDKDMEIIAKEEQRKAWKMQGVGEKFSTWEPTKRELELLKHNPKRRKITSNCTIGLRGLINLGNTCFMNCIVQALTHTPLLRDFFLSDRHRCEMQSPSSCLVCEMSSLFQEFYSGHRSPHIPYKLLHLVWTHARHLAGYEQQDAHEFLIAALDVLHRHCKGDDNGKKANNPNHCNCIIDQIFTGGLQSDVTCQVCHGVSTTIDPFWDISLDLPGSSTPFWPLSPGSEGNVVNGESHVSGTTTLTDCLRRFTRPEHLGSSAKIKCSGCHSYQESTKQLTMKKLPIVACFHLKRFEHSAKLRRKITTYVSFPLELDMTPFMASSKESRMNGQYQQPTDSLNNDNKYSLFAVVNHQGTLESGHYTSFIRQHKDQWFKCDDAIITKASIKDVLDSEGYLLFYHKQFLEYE
Assay: affinity purification with mass spectrometry; lysate of HEK-293FT cells transfected with Flag-USP22 (48 h) on anti-Flag M2 gel at 4°C overnight; 50 mM Tris-HCl pH 7.4, 150 mM NaCl, 1 mM EDTA, 0.5% Triton X-100; eluted with Flag peptide, SDS-PAGE, silver stain, bands analysed by LC-MS

Molecule | binding
SUPT20H (from UniProt Q8NEM7 1-779) | binds
ATXN7 (from UniProt O15265 1-892) | binds
cyclin-dependent kinase 11B (CDK11B), endogenous (from UniProt P21127 1-795) | binds
B1 | binds
